Source: the supplement of paper PMC10849652
Some of the results follow.

Protein sequences, listed by entry. Tags and fused reporters are not part of them. Lines headed by an entry give the natural chain unless they say otherwise; changes in a name come on top.
UniProt Q68E01, whole entry, looked up: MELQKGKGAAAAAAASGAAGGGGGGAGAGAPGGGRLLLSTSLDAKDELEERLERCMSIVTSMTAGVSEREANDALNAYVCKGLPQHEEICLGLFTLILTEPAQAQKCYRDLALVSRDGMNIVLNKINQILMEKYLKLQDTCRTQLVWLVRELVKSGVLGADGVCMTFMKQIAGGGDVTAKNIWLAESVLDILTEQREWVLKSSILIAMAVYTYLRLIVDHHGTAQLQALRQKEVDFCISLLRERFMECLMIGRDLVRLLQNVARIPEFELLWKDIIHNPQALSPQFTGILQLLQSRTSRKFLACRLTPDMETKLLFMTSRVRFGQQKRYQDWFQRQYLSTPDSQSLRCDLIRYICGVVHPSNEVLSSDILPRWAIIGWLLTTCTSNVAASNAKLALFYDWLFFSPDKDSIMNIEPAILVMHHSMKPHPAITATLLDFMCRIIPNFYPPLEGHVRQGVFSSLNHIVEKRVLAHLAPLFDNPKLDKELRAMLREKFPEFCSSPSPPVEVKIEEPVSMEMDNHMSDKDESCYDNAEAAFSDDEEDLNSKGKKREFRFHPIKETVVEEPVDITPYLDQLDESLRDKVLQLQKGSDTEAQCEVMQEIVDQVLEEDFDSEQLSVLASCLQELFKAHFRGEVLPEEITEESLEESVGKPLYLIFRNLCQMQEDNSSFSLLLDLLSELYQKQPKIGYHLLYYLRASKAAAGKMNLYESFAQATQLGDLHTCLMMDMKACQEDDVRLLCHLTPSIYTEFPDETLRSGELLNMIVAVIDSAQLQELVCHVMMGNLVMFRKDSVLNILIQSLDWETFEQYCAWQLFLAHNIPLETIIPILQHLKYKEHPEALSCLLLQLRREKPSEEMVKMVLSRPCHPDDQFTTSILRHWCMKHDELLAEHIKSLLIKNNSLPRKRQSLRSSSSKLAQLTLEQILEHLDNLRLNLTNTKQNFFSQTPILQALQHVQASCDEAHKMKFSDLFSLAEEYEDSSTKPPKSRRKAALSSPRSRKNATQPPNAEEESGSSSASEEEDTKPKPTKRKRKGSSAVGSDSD
UniProt Q9ULR0: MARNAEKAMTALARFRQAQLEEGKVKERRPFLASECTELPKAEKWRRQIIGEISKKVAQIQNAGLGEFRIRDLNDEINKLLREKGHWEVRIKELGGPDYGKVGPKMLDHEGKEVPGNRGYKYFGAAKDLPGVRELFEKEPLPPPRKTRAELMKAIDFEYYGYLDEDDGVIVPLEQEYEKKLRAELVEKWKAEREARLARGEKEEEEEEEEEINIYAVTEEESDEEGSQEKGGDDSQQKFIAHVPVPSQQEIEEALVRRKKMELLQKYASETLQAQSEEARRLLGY
UniProt P05161, whole entry, looked up: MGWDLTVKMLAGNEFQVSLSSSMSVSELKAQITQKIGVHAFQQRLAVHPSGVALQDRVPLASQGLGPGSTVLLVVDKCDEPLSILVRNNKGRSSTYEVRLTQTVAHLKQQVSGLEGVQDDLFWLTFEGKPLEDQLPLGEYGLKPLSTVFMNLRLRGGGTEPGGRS
UniProt P14316: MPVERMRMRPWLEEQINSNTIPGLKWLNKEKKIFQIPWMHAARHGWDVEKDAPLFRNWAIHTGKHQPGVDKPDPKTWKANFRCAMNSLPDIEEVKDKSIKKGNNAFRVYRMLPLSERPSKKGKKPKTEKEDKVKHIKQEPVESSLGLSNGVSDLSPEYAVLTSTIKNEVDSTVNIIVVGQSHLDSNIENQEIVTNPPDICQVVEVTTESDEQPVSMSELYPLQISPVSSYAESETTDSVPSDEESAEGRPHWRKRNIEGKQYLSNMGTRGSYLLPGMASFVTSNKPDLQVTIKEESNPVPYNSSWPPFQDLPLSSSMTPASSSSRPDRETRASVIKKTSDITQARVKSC
UniProt Q01628, whole entry, looked up: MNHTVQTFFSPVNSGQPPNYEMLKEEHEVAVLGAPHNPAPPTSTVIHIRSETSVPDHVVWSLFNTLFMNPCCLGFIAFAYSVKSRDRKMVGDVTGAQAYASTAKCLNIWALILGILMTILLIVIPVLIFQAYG
UniProt Q9H1K1: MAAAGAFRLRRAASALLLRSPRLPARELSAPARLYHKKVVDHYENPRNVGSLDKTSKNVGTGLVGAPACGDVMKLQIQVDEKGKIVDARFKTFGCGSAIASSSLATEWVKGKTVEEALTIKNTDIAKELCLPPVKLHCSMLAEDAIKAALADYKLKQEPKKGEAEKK
UniProt Q9H0C8: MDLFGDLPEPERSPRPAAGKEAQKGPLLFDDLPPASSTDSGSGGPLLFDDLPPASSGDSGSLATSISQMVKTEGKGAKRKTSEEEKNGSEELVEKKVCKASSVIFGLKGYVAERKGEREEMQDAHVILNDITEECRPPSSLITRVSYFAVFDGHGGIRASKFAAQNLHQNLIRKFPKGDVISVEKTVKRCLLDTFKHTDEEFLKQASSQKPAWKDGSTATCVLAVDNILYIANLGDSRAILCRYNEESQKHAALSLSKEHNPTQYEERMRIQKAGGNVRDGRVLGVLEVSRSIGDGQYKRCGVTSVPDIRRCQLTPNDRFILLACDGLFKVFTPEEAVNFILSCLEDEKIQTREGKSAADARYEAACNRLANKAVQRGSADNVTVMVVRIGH
UniProt Q96T52: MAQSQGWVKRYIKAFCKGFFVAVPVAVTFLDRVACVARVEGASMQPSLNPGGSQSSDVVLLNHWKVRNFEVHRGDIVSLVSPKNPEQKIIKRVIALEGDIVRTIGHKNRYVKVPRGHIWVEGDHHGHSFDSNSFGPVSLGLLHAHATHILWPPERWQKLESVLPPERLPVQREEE
UniProt P18084: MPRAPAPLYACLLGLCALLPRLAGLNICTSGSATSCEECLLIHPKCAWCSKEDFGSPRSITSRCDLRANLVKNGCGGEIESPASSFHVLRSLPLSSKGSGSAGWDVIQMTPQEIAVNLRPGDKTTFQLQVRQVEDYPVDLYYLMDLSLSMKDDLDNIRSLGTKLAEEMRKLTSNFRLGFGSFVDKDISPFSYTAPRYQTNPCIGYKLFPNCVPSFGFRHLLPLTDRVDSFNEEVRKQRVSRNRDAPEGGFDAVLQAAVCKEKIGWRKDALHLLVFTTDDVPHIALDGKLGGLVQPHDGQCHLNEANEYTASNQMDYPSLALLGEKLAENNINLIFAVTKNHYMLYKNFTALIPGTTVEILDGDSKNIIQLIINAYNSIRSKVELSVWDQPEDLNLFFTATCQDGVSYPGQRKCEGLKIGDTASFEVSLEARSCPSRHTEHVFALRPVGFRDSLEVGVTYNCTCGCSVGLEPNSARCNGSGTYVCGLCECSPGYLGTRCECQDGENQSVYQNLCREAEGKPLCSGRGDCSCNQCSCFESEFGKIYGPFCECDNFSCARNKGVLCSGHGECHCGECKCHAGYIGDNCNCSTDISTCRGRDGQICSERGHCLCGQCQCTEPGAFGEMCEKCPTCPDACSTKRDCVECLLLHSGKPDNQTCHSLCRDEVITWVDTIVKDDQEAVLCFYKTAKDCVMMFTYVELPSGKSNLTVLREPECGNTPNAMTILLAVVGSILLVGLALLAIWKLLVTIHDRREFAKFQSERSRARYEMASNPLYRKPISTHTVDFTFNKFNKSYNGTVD
UniProt Q13422: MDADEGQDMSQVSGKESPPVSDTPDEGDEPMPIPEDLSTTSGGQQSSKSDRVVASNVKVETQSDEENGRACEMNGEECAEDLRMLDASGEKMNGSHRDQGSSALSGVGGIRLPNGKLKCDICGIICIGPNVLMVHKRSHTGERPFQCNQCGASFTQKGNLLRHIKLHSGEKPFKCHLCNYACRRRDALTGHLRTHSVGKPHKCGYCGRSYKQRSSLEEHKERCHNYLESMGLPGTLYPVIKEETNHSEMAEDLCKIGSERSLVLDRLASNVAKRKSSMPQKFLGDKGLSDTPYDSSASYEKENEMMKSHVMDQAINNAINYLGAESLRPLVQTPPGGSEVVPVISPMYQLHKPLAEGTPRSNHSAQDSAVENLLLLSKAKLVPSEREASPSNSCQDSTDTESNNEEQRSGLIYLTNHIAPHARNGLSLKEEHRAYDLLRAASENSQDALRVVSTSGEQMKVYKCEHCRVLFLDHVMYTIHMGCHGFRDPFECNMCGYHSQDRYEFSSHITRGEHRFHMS
UniProt Q16891: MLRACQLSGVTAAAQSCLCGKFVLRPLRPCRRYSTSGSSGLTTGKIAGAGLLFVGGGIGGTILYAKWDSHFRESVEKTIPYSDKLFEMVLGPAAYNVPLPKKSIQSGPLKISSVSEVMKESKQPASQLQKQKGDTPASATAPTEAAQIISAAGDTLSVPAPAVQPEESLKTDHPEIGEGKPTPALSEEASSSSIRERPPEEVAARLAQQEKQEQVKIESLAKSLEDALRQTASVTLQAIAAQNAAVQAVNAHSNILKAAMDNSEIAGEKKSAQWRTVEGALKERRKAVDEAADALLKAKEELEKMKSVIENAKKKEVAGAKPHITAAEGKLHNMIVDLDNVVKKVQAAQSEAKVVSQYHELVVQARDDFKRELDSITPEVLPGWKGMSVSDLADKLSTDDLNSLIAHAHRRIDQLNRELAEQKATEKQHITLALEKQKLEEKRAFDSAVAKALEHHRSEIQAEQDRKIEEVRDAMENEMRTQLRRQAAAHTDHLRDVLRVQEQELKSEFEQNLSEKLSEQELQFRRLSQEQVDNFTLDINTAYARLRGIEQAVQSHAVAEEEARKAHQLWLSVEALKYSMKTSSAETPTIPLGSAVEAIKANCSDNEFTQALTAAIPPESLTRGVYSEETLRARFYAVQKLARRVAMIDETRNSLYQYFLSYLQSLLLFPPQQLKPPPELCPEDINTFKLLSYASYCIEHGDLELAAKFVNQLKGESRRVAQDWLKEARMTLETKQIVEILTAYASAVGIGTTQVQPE
UniProt O00425, whole entry, looked up: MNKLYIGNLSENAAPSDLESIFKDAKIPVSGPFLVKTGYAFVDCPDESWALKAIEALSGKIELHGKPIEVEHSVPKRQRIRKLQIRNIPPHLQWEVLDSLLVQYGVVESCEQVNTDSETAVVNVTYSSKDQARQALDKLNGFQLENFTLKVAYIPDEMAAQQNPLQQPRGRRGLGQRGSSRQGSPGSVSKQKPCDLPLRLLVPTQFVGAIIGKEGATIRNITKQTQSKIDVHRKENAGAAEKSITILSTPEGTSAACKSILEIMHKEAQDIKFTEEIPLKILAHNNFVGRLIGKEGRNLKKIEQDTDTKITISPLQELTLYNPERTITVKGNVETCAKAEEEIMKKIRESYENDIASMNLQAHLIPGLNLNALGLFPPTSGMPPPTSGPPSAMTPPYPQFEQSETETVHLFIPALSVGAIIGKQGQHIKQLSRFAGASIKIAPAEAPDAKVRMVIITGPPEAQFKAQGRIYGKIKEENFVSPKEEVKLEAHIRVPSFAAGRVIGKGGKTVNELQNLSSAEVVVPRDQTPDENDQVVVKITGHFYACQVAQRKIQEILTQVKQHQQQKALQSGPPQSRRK
UniProt Q9UI26: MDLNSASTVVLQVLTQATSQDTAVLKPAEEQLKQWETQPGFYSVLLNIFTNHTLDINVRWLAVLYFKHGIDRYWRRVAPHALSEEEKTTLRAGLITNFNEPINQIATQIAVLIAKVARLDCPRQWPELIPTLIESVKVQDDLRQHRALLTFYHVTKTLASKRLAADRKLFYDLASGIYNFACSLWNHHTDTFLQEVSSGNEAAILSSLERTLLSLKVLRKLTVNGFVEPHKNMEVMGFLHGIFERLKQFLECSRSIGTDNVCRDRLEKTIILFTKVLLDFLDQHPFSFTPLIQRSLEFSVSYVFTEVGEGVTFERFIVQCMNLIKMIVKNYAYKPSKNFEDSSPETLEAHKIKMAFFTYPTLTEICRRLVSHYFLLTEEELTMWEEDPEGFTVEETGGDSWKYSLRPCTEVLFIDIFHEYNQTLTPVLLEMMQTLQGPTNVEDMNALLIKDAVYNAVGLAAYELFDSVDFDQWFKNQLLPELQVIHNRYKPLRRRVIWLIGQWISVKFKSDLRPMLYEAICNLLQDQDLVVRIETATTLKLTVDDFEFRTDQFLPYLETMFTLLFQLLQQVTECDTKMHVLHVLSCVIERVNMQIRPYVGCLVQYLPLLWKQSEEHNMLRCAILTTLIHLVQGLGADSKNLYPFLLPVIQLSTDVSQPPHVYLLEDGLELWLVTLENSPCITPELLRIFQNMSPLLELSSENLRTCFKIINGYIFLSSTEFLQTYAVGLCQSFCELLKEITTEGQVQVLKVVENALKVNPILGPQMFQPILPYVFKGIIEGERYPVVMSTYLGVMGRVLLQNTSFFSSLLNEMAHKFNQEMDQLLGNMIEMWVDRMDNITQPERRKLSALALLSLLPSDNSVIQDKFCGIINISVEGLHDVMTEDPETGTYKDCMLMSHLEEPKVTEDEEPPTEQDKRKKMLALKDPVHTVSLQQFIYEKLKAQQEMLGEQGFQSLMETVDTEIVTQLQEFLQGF
UniProt P0DMQ5: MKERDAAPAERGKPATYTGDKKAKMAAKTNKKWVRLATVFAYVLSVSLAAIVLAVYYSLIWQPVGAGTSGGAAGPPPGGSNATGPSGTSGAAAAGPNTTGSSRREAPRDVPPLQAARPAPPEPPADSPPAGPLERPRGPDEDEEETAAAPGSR

Tests used:
Assay in all cases: log2 fold change, soluble protein after heating vs DMSO (PISA); higher = thermal stabilisation; K562 cells, 10 uM, 30 min; active = over 0.2 and 3.5 SD of the protein, either way, in both replicates (recomputed)
[1] = compound: C1=CC=C(C=C1)[C@H](COC2=CC3=C(C=C2)NC(=O)N3)NC(=O)C4=CC=CN(C4=O)CC5=CC(=C(C=C5)F)F
Method in brief: (§1)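 K562 cells at 2×10^6 cells/mL were exposed to 10 μM compound for 30 min, then aliquots were heated for 3 min across 48°C-58°C, pooled, and extracted in PBS containing 0.5% NP-40 at 4°C. The supernatant after 21,000xg for 90 min was taken as soluble protein and measured by TMTpro 16plex LC-MS/MS with channel sums equalised. Thermal stability is reported relative to control samples, with values from duplicates. Fold changes are given on a log2 scale.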

[2] = compound: CC1=C(SC2=C1C(=N[C@H](C3=NN=C(N32)C)CC(=O)N)C4=CC=C(C=C4)Cl)C
Method in brief: as §1

[3] = compound: CC1=C2C(=CC=C1)N=C(N(C2=O)C3=CC=CC=C3C)CN4C=NC5=C(N=CN=C54)N
Method in brief: as §1

[4] = compound: Cc1sc2c(c1C)C(c1ccc(Cl)cc1)=N[C@@H](CC(=O)OC(C)(C)C)c1nnc(C)n1-2
Method in brief: as §1

[5] = compound: c1ccc([C@@H]2C[C@H]2NC2CCNCC2)cc1
Method in brief: as §1

Measured: log2 fold change

INTS9 (UniProt Q9NV88)
inactive: [1] 0 | [2] 0.041 | [3] 0.023 | [4] -0.027 | [5] -0.043

INPP4A (UniProt Q96PE3)
inactive: [1] -0.008 | [2] -0.021 | [3] -0.075 | [4] 0.004 | [5] 0.008

INTS13 (UniProt Q9NVM9)
inactive: [1] -0.1 | [2] 0.093 | [3] 0.048 | [4] -0.039 | [5] -0.011

IPO8 (UniProt O15397)
inactive: [1] -0.123 | [2] -0.01 | [3] 0.021 | [4] -0.019 | [5] 0.026

INPP5B (UniProt P32019)
inactive: [1] -0.067 | [2] 0.056 | [3] 0.024 | [4] 0.086 | [5] -0.035

IPO13 (UniProt O94829)
inactive: [1] -0.005 | [2] 0.008 | [3] 0.098 | [4] 0.037 | [5] 0.034

IQGAP2 (UniProt Q13576)
inactive: [1] -0.039 | [2] 0.013 | [3] 0.063 | [4] 0.024 | [5] 0.005

INTS3 (UniProt Q68E01)
inactive: [1] -0.097 | [2] 0.042 | [3] -0.07 | [4] 0.01 | [5] 0.029

INTS8 (UniProt Q75QN2)
inactive: [1] -0.192 | [2] 0.078 | [3] 0.101 | [4] 0.087 | [5] 0.028

IMMP1L (UniProt Q96LU5)
inactive: [1] 0.054 | [2] 0.045 | [3] 0.101 | [4] -0.021 | [5] 0.024

IDI1 isoform 2 (UniProt Q13907)
inactive: [1] -0.024 | [2] 0.024 | [3] 0.037 | [4] 0.003 | [5] -0.007

IKZF4 (UniProt Q9H2S9)
inactive: [1] -0.157 | [2] -0.002 | [3] 0.043 | [5] -0.042

ISY1 isoform 1 (UniProt Q9ULR0)
inactive: [1] 0.047 | [2] -0.021 | [3] 0.008 | [4] 0.037 | [5] 0.03

ISCA2 (UniProt Q86U28)
inactive: [1] 0.019 | [2] 0.075 | [3] 0.097 | [4] -0.021 | [5] 0.034

IL27RA (UniProt Q6UWB1)
inactive: [1] 0.021 | [2] 0.144 | [3] 0.002 | [4] 0.097 | [5] 0.096

IFNGR1 (UniProt P15260)
inactive: [1] 0.106 | [2] 0.105 | [3] 0.028 | [4] 0.046 | [5] 0.03

ISG15 (UniProt P05161)
inactive: [1] -0.044 | [2] 0.075 | [3] 0.103 | [4] -0.083 | [5] 0.001

IRF2 (UniProt P14316)
inactive: [1] -0.046 | [2] -0.093 | [3] 0.029 | [4] 0.003 | [5] 0.005

INTS11 (UniProt Q5TA45)
inactive: [1] -0.009 | [2] 0.06 | [3] 0.013 | [4] -0.004 | [5] -0.022

ITPA (UniProt Q9BY32)
inactive: [1] 0.039 | [2] 0.082 | [3] -0.005 | [4] -0.026 | [5] -0.007

IGFBP2 (UniProt P18065)
inactive: [1] -0.121 | [2] -0.101 | [3] 0.131 | [4] -0.295 | [5] 0.062

ITM2A (UniProt O43736)
inactive: [1] 0.013 | [2] -0.03 | [3] -0.019 | [4] 0.058 | [5] 0.098

IFITM3 (UniProt Q01628)
inactive: [1] 0.038 | [2] -0.024 | [3] -0.06 | [4] 0.081 | [5] -0.014

IFRD2 isoform 2 (UniProt Q12894)
inactive: [1] -0.013 | [2] -0.091 | [3] -0.055 | [4] 0.063 | [5] 0.061

ISCU (UniProt Q9H1K1)
inactive: [1] -0.012 | [2] -0.02 | [3] -0.031 | [4] 0.019 | [5] 0.016

ILKAP (UniProt Q9H0C8)
inactive: [1] -0.071 | [2] 0.076 | [3] 0.135 | [4] -0.045 | [5] -0.046

ITGAV (UniProt P06756)
inactive: [1] 0.014 | [2] -0.024 | [3] 0.028 | [4] -0.005 | [5] 0.04

Quoted from the entries so far (14 entries):
ISY1 isoform 1 (UniProt Q9ULR0)
inactive: [1] 0.047 | [2] -0.021 | [3] 0.008 | [4] 0.037 | [5] 0.03

ISCA2 (UniProt Q86U28)
inactive: [1] 0.019 | [2] 0.075 | [3] 0.097 | [4] -0.021 | [5] 0.034

IL27RA (UniProt Q6UWB1)
inactive: [1] 0.021 | [2] 0.144 | [3] 0.002 | [4] 0.097 | [5] 0.096

IFNGR1 (UniProt P15260)
inactive: [1] 0.106 | [2] 0.105 | [3] 0.028 | [4] 0.046 | [5] 0.03

ISG15 (UniProt P05161)
inactive: [1] -0.044 | [2] 0.075 | [3] 0.103 | [4] -0.083 | [5] 0.001

IRF2 (UniProt P14316)
inactive: [1] -0.046 | [2] -0.093 | [3] 0.029 | [4] 0.003 | [5] 0.005

INTS11 (UniProt Q5TA45)
inactive: [1] -0.009 | [2] 0.06 | [3] 0.013 | [4] -0.004 | [5] -0.022

ITPA (UniProt Q9BY32)
inactive: [1] 0.039 | [2] 0.082 | [3] -0.005 | [4] -0.026 | [5] -0.007

IGFBP2 (UniProt P18065)
inactive: [1] -0.121 | [2] -0.101 | [3] 0.131 | [4] -0.295 | [5] 0.062

ITM2A (UniProt O43736)
inactive: [1] 0.013 | [2] -0.03 | [3] -0.019 | [4] 0.058 | [5] 0.098

IFITM3 (UniProt Q01628)
inactive: [1] 0.038 | [2] -0.024 | [3] -0.06 | [4] 0.081 | [5] -0.014

IFRD2 isoform 2 (UniProt Q12894)
inactive: [1] -0.013 | [2] -0.091 | [3] -0.055 | [4] 0.063 | [5] 0.061

ISCU (UniProt Q9H1K1)
inactive: [1] -0.012 | [2] -0.02 | [3] -0.031 | [4] 0.019 | [5] 0.016

ILKAP (UniProt Q9H0C8)
inactive: [1] -0.071 | [2] 0.076 | [3] 0.135 | [4] -0.045 | [5] -0.046

Carrying on.

ITCH (UniProt Q96J02)
inactive: [1] -0.063 | [2] -0.011 | [3] -0.064 | [4] 0.038 | [5] -0.024

ITGAE (UniProt P38570)
inactive: [1] 0.102 | [2] 0.039 | [3] 0.185 | [5] -0.073

INPPL1 (UniProt O15357)
inactive: [1] -0.121 | [2] 0.01 | [3] 0.071 | [4] 0.101 | [5] -0.044

IMMP2L (UniProt Q96T52)
inactive: [1] 0.035 | [2] 0.045 | [3] 0.151 | [4] -0.029 | [5] -0.002

IMPDH2 (UniProt P12268)
inactive: [1] 0.057 | [2] -0.094 | [3] -0.095 | [4] -0.002 | [5] -0.013

IPO4 isoform 2 (UniProt Q8TEX9)
inactive: [1] -0.036 | [2] -0.051 | [3] -0.016 | [4] 0.056 | [5] 0.009

IRAK4 (UniProt Q9NWZ3)
inactive: [1] -0.077 | [2] -0.006 | [3] 0.009 | [4] -0.012 | [5] -0.056

ITGB5 (UniProt P18084)
inactive: [1] -0.012 | [2] 0.048 | [3] -0.043 | [4] 0.014 | [5] 0.011

IPO9 (UniProt Q96P70)
inactive: [1] 0.018 | [2] 0.063 | [3] 0.014 | [4] -0.01 | [5] 0.079

IKZF1 (UniProt Q13422)
inactive: [1] -0.011 | [2] 0.05 | [3] 0.15 | [4] -0.009 | [5] 0.014

IMMT isoform 4 (UniProt Q16891)
inactive: [1] 0.005 | [2] 0.021 | [3] 0.026 | [4] -0.025 | [5] -0.008

IGF2BP3 (UniProt O00425)
inactive: [1] 0.132 | [2] -0.293 | [3] -0.017 | [4] 0.303 | [5] 0.039

IPO11 isoform 2 (UniProt Q9UI26)
inactive: [1] 0.048 | [2] 0.064 | [3] 0.01 | [4] 0.013 | [5] 0.001

IMPA1 isoform 3 (UniProt P29218)
inactive: [1] -0.011 | [2] -0.027 | [3] 0.003 | [4] 0 | [5] 0.031

ITM2B (UniProt Q9Y287)
inactive: [1] 0.013 | [2] -0.068 | [3] 0.061 | [4] -0.028 | [5] -0.112

IRF2BP2 (UniProt Q7Z5L9)
inactive: [1] 0.022 | [2] 0.045 | [3] -0.001 | [4] -0.063 | [5] -0.011

IPO5 isoform 3 (UniProt O00410)
inactive: [1] -0.075 | [2] 0.027 | [3] -0.032 | [4] -0.053 | [5] -0.034

IKZF1 isoform 2 (UniProt Q13422)
inactive: [1] 0.335 | [2] 0.217 | [3] 0.052 | [4] -0.026 | [5] 0.061

IQGAP1 (UniProt P46940)
inactive: [1] -0.065 | [2] 0.066 | [3] 0.043 | [4] 0.008 | [5] -0.038

ITPK1 (UniProt Q13572)
inactive: [1] -0.017 | [2] 0.092 | [3] 0.05 | [4] 0.034 | [5] 0

INAFM2 (UniProt P0DMQ5)
inactive: [1] 0.037 | [2] 0.038 | [4] 0.05 | [5] -0.057

INTS12 (UniProt Q96CB8)
inactive: [2] 0.054 | [3] 0 | [4] 0.057 | [5] -0.22

ING5 (UniProt Q8WYH8)
inactive: [2] 0.051 | [4] 0.036 | [5] -0.037

INTS5 (UniProt Q6P9B9)
inactive: [1] -0.091 | [3] 0.052 | [4] 0.065

INTS2 (UniProt Q9H0H0)
inactive: [2] 0.376 | [3] 0.086 | [4] -0.267 | [5] 0.023

IMPDH2 (UniProt H0Y4R1)
inactive: [1] 0.109 | [3] -0.134 | [4] 0.083

IGFBP3 isoform 2 (UniProt P17936)
inactive: [2] -0.081 | [3] 0.034 | [4] -0.083 | [5] 0.057

INF2 (UniProt Q27J81)
inactive: [1] -0.004 | [2] -0.043 | [5] 0.162
